Some of the results follow. Further columns of the screen follow, without active or inactive calls. Most of these compounds were active or inconclusive in the main read-out, so they are no random draw. Words in brackets tell the shape of the fitted curve; partial curves, single points and poor fits give uncertain potencies.
Experiment: qHTS Assay for Lipid Storage Modulators in Drosophila S3 Cells;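 on cell number change: cells counted by Cell Tracker Red CMTPX staining in the red channel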
Conditions: BODIPY lipid droplet fluorescence, 18-24 h; for cell number change: measured here: cell count max response, cells fed with added oleic acid
How it was run: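 Drosophila S3 cells got compounds at several concentrations plus oleic acid (400 uM solution). Laser-scanning cytometry with 488 nm excitation read lipid droplets at 500-530 nm and cells at 575-640 nm. Percent activity was relative to 20 uM Triacsin C.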

[1] = measured here: lipid fluorescence (Fed channel) AC50, cells fed with added oleic acid
[2] = measured here: cell number channel AC50, cells fed with added oleic acid

SMILES | cell number change [%] | AC50 [1] | AC50 [2]
CCCNC(=O)C1CC2Cn3c(nc4ccccc43)C2N1C (configuration not stated) | -5.15 | 2.31 µM [rising, partial curve] | –
O=C(CSc1nncs1)NCc1ccc(F)cc1 | – | 0.116 µM [falling, full curve] | –
O=C(CCNC(=O)c1ccccc1)NCc1ccccc1F | -7.39 | 2.91 µM [rising, single point] | –
Cc1ccc(Cl)cc1N1CCN(C(=O)c2cc3c(=O)[nH]c4ccccc4c3n2C)CC1 | -0.355 | – | –
COc1ccc(C2=NOC(C(=O)Nc3cccnc3)C2)cc1 (configuration not stated) | – | 6.51 µM [rising, partial curve, poor fit] | 2.59 µM [rising, single point]
Cc1cccc(NC(=O)COc2coc(CN3CCc4ccccc4C3)cc2=O)c1 | -24.4 | – | 4.11 µM [falling, full curve, poor fit]
COC(=O)CSc1nc2cc3c(cc2cc1C#N)OCO3 | 32.1 | – | 8.2 µM [rising, single point]
CN1c2ccccc2C(C)(C)C12CC(c1ccc(S(=O)(=O)N3CCCCC3)cc1)=NO2 (configuration not stated) | -32.9 | – | 6.51 µM [rising, single point]
CCn1c2ccccc2c2cc(CN3CCN(Cc4cc(OC)ccc4O)CC3)ccc21 | 61.8 | – | 6.51 µM [rising, full curve]
O=C(Nc1ccc(N2CCOCC2)cc1)c1cccc(S(=O)(=O)N2CCCC2)c1 | -13.3 | 0.164 µM [falling, full curve, poor fit] | –
O=c1[nH][nH]c(-c2ccccc2O)c1C(C[N+](=O)[O-])c1ccc(Br)cc1 (configuration not stated) | -20.7 | 29.1 µM [falling, single point] | –
O=C(NC1CCCCC1)C1CC(O)CN1C(=O)OCc1ccccc1 (configuration not stated) | 12.8 | 2.91 µM [rising, partial curve, poor fit] | –
Nc1ccccc1Nc1ccncc1[N+](=O)[O-] | 1.06 | – | –
Cc1onc(-c2c(F)cccc2Cl)c1C(=O)Nc1nccs1 | 25.9 | 6.51 µM [rising, partial curve, poor fit] | 6.51 µM [rising, partial curve, poor fit]
O=C(NS(=O)(=O)c1ccccc1)c1ccccc1O | -72.3 | – | 29.1 µM [falling, single point]
Cc1cnc(NC(=O)CSc2nnc(N)s2)s1 | -0.605 | 29.1 µM [falling, single point] | –
COc1cccc(N2CC(C(=O)Nc3nnc(SCCC4OCCO4)s3)CC2=O)c1 (configuration not stated) | -17.6 | 29.1 µM [rising, single point] | –
Cc1cccc(OCC(=O)NCC(=O)N/N=C/c2cccs2)c1 | -7.89 | 0.291 µM [falling, partial curve, poor fit] | –
Cc1ccc(C)c(S(=O)(=O)NC2CCS(=O)(=O)C2)c1 (configuration not stated) | -14.3 | 0.116 µM [rising, full curve, poor fit] | –
COc1ccc(OC)c(N(CC(=O)Nc2ccccc2)S(C)(=O)=O)c1 | 2.28 | 29.1 µM [rising, single point] | –
N#C/C(=C(\O)c1cc(Cl)sc1Cl)c1nc2ccccc2[nH]1 | -7.76 | – | –

SMILES | cell number change [%] | AC50 [1] | AC50 [2]
CN(c1ccccc1)S(=O)(=O)c1ccc(NC(=O)c2ccco2)cc1 | 13.4 | – | 0.092 µM [rising, full curve, poor fit]
Cn1c(=O)c2c(nc(NCC3CCCC(CN)C3)n2Cc2ccc(Cl)cc2Cl)n(C)c1=O (configuration not stated) | -9.72 | – | –
CN(C)C(=O)Nc1ccc(F)cc1F | -37.3 | 0.82 µM [falling, full curve] | 0.146 µM [falling, full curve]
Cc1cccc(NS(=O)(=O)c2ccc(C(=O)N3CCCC3)cc2)c1C | 22.7 | 1.64 µM [rising, full curve] | 1.64 µM [rising, full curve, poor fit]
CCC(C)(C)NC(=O)C(c1cccn1C)N(Cc1ccc(C)cc1)C(=O)Cn1nnc2ccccc21 (configuration not stated) | 2.58 | – | –
CSc1nnc(-c2ccco2)n1-c1ccccc1 | -8.3 | – | –
CC(OC(=O)CCCN=C1NS(=O)(=O)c2ccccc21)C(=O)c1ccccc1 (configuration not stated) | -21.2 | 29.1 µM [falling, single point] | –
C#Cc1cccc(C(=O)N2CCCC(C(=O)c3ccc(OC)cc3C)C2)c1 (configuration not stated) | – | 2.31 µM [falling, partial curve] | –
C#CCOc1ccc(Br)cc1C(c1c(C)[nH][nH]c1=O)c1c(C)[nH][nH]c1=O | -22.3 | – | –
COc1ccc(CC(=O)Nc2cccc(-c3ccc4nncn4n3)c2)cc1OC | -38.2 | 0.116 µM [falling, full curve, poor fit] | 4.11 µM [falling, partial curve]
CCOC(=O)C1CCN(c2cc(C)nc3cc(-c4cccc(F)c4)nn23)CC1 | 91.3 | 0.731 µM [rising, single point] | 0.517 µM [rising, single point]
COc1ccc(-c2cn(-c3ccc(C)c(C)c3)c(=S)[nH]2)cc1OC | -27.3 | 20.6 µM [falling, single point] | –
COC(=O)c1cc2oc(C)cc2n1CC(=O)Nc1ccc(OC)c(OC)c1OC | 24.9 | 29.1 µM [rising, single point] | –
CCOC(=O)CCNC(=O)N1CCCC(C(=O)c2cccc(OC(C)C)c2)C1 (configuration not stated) | 9.33 | 29.1 µM [falling, single point] | –
O=C(CNC(=O)c1ccccc1Br)NNC(=O)c1cccs1 | -6.5 | – | –
CC1CCN(Cc2nnnn2CCCC(=O)N(C)C2CCOC2)CC1 (configuration not stated) | 13.1 | – | –
COc1ccc(OC)c(Nc2nc(NCc3ccco3)c3ccccc3n2)c1 | -31.4 | 29.1 µM [falling, single point] | 18.4 µM [falling, single point]
Cc1ccc(Cl)cc1NC(=S)N(Cc1ccccc1)Cc1cccnc1 | 58.3 | 13 µM [rising, partial curve, poor fit] | 9.2 µM [rising, partial curve]
N#C/C(=C(/O)COc1cccc2ccccc12)c1nc2ccccc2[nH]1 | 94.2 | 0.651 µM [rising, full curve] | 20.6 µM [rising, single point]
Cc1ccc(CN2CCN(CC(=O)NCc3ccc(Cl)cc3)C2=O)cc1 | -21.7 | 18.4 µM [falling, partial curve, poor fit] | –
S=C(Nc1ccc(Cl)cc1)c1sc(N2CCCCC2)nc1N1CCOCC1 | 8.13 | 1.64 µM [rising, single point] | –

Some of the entries so far, as comma-separated lines.
SMILES,cell number change [%],AC50 [1],AC50 [2]
N#C/C(=C(\O)c1cc(Cl)sc1Cl)c1nc2ccccc2[nH]1,-7.76,–,–
CN(c1ccccc1)S(=O)(=O)c1ccc(NC(=O)c2ccco2)cc1,13.4,–,"0.092 µM [rising, full curve, poor fit]"

Single entries from the list:
Entry for COc1ccc(-c2cn(-c3ccc(C)c(C)c3)c(=S)[nH]2)cc1OC under AC50 [1]: 20.6 µM [falling, single point]
Entry for C#Cc1cccc(C(=O)N2CCCC(C(=O)c3ccc(OC)cc3C)C2)c1 (configuration not stated) under AC50 [1]: 2.31 µM [falling, partial curve]

(further entries)

SMILES | cell number change [%] | AC50 [1] | AC50 [2]
Cc1nc(NC(=O)c2ccccc2)sc1-c1csc(Nc2cccc(Cl)c2)n1 | -67 | 9.2 µM [falling, partial curve] | 14.6 µM [falling, partial curve]
COc1ccc(N=C2NN=C(c3c(C)[nH]c4ccccc34)CS2)cc1 | -8.48 | – | –
CCN(CCNC(=O)Nc1ccc(Cl)cc1)c1ccccc1 | 46.2 | – | 10.3 µM [rising, partial curve]
COc1ccc(CNC(=O)/C=C/c2ccc(S(=O)(=O)NCc3ccco3)cc2)cc1OC | -1.27 | 20.6 µM [falling, single point] | –
Cc1ccc(S(=O)(=O)N2CC3(C)CN(S(=O)(=O)c4ccc(C)cc4)CC(C)(C2)C3)cc1 | -34 | 0.103 µM [falling, full curve] | 7.31 µM [falling, partial curve, poor fit]
COc1ccc2c(c1OC)C(=O)N(c1cccc(C(F)(F)F)c1)C2 | 17.7 | 2.59 µM [rising, partial curve] | –
O=C(C1CCCO1)N1CCC(O)(c2ccccc2)CC1 (configuration not stated) | -11.4 | – | –
CCOc1ccccc1C(=O)N(CCC(=O)OC)c1ccccn1 | – | 18.4 µM [falling, partial curve] | –
CCN1C(=O)C2C(C1=O)N1C(c3ccccc3)C3C(=O)N(CC)C(=O)C3N1C2c1ccccc1 (configuration not stated) | -11.1 | 4.11 µM [falling, single point] | –
CCN(C1CCCCC1)S(=O)(=O)c1ccc(S(=O)(=O)NCc2ccncc2)cc1 | 0.575 | 29.1 µM [falling, single point] | –
CC1CC(C)(C)NC(=S)S1 (configuration not stated) | – | – | 2.06 µM [rising, partial curve]
CC1CCN(C(=O)CN2c3cccc4cccc(c34)S2(=O)=O)CC1 | 32.9 | 8.2 µM [rising, partial curve, poor fit] | 11.6 µM [rising, partial curve, poor fit]
Fc1ccccc1Nc1nc2ccccc2n2nnnc12 | 3.93 | 9.2 µM [rising, partial curve] | –
COC(=O)c1c(F)c(F)c(N2CCOCC2)c(F)c1F | -9.77 | 0.0206 µM [falling, full curve, poor fit] | –
CCOc1cc(C(c2c(C)[nH][nH]c2=O)c2c(C)[nH][nH]c2=O)ccc1OCc1ccc([N+](=O)[O-])cc1 | 20.5 | – | –
CCOc1cc(/C=C2/C(=N)N3C=CSC3=NC2=O)ccc1OCCCOc1ccccc1C | -28.7 | – | –
CC(OC(=O)c1nsc(Cl)c1Cl)C(=O)NCCc1ccccc1 (configuration not stated) | 11.5 | – | –
O=C(COC(=O)c1cncc(Br)c1)NC1CCCCC1 | -22 | 6.51 µM [falling, partial curve, poor fit] | –
CS(=O)(=O)NCC(c1cccnc1)N1CCN(c2ccccc2F)CC1 (configuration not stated) | 10.8 | 23.1 µM [rising, partial curve, poor fit] | –
CCN(CC)CCn1c(NCc2cccc(OC)c2OC)nc2ccccc21 | 8.8 | 10.3 µM [rising, partial curve, poor fit] | –

From PubChem BioAssay AID2685 (National Center for Advancing Translational Sciences (NCATS), 2010)
